According to the supplement of paper PMC10849652:
The other results are listed elsewhere or left out.

Sequences of proteins named here, by UniProt entry; tags and fusion partners are left off. A change or cut given only in a name is not applied to a line headed by its entry.
UniProt Q7LG56, whole entry, looked up: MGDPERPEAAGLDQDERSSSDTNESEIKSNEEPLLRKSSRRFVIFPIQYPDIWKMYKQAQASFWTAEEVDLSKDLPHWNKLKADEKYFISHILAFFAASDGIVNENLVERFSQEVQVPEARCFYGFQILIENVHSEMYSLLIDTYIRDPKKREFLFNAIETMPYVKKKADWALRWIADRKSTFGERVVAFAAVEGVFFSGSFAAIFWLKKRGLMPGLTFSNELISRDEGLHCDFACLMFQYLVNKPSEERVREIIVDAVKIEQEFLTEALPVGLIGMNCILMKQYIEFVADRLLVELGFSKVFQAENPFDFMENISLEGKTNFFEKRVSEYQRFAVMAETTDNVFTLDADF
UniProt Q15404: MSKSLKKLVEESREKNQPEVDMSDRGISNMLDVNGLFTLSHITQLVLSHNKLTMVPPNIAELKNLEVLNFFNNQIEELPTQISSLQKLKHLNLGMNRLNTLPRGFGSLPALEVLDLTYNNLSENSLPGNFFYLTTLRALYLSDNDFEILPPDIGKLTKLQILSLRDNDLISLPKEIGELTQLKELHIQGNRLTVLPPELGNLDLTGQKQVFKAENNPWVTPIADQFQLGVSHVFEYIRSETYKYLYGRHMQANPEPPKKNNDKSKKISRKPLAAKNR
UniProt Q9Y3A4: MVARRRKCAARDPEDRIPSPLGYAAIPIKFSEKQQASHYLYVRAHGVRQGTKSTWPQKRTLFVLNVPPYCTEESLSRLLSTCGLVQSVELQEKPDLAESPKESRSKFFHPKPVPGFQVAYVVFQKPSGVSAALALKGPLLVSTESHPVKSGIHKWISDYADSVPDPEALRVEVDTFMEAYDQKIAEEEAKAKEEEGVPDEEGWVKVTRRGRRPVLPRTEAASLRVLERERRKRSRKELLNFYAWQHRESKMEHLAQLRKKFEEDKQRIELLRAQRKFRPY
UniProt P29034: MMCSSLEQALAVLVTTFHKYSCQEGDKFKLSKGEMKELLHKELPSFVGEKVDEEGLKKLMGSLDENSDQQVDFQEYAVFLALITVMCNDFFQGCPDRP
UniProt Q96T23: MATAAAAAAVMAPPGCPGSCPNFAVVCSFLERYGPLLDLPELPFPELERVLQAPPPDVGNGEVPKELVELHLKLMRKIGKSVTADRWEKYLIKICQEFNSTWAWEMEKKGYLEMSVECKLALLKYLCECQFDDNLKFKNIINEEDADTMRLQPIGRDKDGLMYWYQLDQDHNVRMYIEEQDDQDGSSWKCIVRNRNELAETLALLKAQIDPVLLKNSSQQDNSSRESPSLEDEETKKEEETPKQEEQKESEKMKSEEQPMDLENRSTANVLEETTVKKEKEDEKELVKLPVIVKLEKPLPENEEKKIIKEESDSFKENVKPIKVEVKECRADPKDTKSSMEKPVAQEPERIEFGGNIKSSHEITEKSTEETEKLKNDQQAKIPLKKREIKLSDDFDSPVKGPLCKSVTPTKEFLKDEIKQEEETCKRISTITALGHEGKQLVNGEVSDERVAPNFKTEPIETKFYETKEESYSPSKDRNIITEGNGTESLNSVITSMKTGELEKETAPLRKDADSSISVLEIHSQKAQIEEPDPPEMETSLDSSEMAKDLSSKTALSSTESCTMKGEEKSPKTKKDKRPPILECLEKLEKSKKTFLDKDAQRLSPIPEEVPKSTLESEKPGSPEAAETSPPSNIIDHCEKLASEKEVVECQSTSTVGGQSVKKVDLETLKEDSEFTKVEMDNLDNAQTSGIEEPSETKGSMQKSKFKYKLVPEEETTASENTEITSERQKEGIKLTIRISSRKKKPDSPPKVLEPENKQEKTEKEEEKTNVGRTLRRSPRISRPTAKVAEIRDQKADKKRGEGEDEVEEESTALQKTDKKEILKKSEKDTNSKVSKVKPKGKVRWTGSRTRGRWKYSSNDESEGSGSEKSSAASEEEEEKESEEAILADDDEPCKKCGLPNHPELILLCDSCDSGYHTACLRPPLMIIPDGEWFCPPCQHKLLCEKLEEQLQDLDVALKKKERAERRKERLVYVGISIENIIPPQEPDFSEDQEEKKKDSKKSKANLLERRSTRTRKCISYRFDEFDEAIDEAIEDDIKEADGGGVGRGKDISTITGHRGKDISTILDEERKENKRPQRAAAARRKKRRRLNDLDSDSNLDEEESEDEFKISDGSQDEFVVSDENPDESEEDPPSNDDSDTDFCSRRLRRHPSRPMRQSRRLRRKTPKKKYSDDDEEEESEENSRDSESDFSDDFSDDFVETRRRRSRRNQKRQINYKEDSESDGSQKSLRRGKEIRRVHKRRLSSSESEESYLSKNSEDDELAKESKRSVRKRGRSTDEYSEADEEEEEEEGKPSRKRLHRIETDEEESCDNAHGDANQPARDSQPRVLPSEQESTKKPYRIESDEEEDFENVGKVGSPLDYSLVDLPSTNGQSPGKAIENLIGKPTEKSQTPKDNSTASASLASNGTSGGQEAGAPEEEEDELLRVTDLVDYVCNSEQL
UniProt Q9HA92: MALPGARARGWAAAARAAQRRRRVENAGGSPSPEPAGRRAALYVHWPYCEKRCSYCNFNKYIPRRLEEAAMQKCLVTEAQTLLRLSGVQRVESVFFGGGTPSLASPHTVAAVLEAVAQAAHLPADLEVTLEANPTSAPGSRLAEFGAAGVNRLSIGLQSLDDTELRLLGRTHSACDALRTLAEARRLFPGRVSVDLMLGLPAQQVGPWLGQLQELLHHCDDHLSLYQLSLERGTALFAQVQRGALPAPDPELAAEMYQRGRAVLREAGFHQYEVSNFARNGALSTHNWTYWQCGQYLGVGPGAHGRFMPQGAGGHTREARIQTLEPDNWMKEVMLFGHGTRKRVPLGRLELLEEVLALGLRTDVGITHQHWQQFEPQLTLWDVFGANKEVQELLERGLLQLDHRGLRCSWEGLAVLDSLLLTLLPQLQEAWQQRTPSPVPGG
UniProt P31949: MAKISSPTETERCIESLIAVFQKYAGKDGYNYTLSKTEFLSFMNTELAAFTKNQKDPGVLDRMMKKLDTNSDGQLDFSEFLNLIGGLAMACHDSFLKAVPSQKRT
UniProt O95059: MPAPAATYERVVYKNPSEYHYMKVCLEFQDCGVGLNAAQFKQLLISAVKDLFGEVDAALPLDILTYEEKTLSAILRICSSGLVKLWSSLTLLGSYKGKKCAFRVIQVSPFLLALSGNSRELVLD
UniProt P51812, whole entry, looked up: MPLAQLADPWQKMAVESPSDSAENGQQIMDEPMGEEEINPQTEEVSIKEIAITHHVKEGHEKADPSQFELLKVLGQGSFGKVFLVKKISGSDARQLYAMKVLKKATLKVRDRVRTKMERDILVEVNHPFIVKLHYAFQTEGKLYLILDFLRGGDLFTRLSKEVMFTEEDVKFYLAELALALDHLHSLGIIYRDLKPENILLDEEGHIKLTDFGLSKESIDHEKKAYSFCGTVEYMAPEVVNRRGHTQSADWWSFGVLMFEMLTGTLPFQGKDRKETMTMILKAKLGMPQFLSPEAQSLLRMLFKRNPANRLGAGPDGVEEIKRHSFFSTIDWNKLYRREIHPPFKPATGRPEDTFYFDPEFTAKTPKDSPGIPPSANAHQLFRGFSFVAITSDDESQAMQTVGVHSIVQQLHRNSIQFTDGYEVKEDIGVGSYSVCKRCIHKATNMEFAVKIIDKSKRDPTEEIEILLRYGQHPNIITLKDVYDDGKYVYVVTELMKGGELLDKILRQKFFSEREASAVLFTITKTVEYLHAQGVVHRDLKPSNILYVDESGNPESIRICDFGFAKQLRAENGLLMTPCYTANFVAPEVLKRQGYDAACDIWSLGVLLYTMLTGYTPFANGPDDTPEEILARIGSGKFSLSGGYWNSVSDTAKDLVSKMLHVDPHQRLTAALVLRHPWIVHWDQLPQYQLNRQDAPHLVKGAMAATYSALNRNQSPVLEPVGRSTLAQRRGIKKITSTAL
UniProt P04843: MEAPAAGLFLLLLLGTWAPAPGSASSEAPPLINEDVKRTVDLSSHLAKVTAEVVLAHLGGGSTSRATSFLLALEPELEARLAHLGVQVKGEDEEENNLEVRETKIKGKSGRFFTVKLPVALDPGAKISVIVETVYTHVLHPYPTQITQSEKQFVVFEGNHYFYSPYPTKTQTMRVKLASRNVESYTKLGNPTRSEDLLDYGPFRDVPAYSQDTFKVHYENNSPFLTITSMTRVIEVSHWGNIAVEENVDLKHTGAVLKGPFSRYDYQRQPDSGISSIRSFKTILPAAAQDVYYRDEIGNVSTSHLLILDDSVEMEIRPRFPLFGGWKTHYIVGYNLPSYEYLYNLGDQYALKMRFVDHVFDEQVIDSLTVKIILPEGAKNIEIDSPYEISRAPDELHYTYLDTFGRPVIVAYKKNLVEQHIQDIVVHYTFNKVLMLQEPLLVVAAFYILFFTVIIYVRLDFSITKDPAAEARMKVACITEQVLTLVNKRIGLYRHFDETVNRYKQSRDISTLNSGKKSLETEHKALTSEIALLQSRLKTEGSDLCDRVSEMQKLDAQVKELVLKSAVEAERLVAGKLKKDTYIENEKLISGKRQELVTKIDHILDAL

Legend:
Assay in all cases: log2 fold change, soluble protein after heating vs DMSO (PISA); higher = thermal stabilisation; K562 lysate, 10 uM; active = over 0.2 and 3.5 SD of the protein, either way, in both replicates (recomputed)
vemurafenib = compound: CCCS(=O)(=O)Nc1ccc(F)c(C(=O)c2c[nH]c3ncc(-c4ccc(Cl)cc4)cc23)c1F [vemurafenib]
Procedure, shortened: (§1)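 Thermal stability, expressed as log-two fold change relative to solvent controls, is given from duplicates. Crude K562 extract in PBS pH 7.4 with 1 mM MgCl2, at 1 mg/mL protein, was treated with 10 μM compound for 30 min and heated in aliquots for 3 min across 48°C-58°C. After pooling, adjustment to 0.5% NP-40 at 4°C and centrifugation at 21,000xg for 90 min, supernatant protein was measured by TMTpro 16plex LC-MS/MS with channel sums equalised.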

[1] = compound: CCCS(=O)(=O)Nc1ccc(F)c(C(=O)c2c[nH]c3ncc(Cl)cc23)c1F
Procedure, shortened: as §1

barasertib = compound: CCN(CCCOc1ccc2c(Nc3cc(CC(=O)Nc4cccc(F)c4)[nH]n3)ncnc2c1)CCOP(=O)(O)O [barasertib]
Procedure, shortened: as §1

[2] = compound: CC[C@@H]1C(=O)N(C)c2cnc(Nc3ccc(C(=O)NC4CCN(C)CC4)cc3OC)nc2N1C1CCCC1
Procedure, shortened: as §1

volasertib = compound: CC[C@@H]1C(=O)N(C)c2cnc(Nc3ccc(C(=O)N[C@H]4CC[C@H](N5CCN(CC6CC6)CC5)CC4)cc3OC)nc2N1C(C)C [volasertib]
Procedure, shortened: as §1

[3] = compound: CCn1c(C(=O)N(C2CC2)C2CC2)cc2c3c(ncn3C)c(Nc3cc(C)n(C)n3)nc21
Procedure, shortened: as §1

[4] = compound: CCn1cc(-c2ccnc3[nH]c(-c4cccc(CN(C)C)c4)cc23)c(-c2ccc(NC(=O)N(C)C)cc2)n1
Procedure, shortened: as §1

[5] = compound: CN1CCC(CNc2ccc3ncc(-c4cccc(OC(F)(F)F)c4)n3n2)CC1
Procedure, shortened: as §1

saracatinib = compound: CN1CCN(CCOc2cc(OC3CCOCC3)c3c(Nc4c(Cl)ccc5c4OCO5)ncnc3c2)CC1 [saracatinib]
Procedure, shortened: as §1

sotrastaurin = compound: CN1CCN(c2nc(C3=C(c4c[nH]c5ccccc45)C(=O)NC3=O)c3ccccc3n2)CC1 [sotrastaurin]
Procedure, shortened: as §1

alvocidib = compound: CN1CC[C@H](c2c(O)cc(O)c3c(=O)cc(-c4ccccc4Cl)oc23)[C@H](O)C1 [alvocidib]
Procedure, shortened: as §1

Tubastatin A = compound: CN1CCc2c(c3ccccc3n2Cc2ccc(C(=O)NO)cc2)C1 [Tubastatin A]
Procedure, shortened: as §1

[6] = compound: CNC(=O)C1=CC=CC=C1NC2=NC(=NC=C2Cl)NC3=C(C=C(C=C3)N4CCOCC4)OC
Procedure, shortened: as §1

defactinib = compound: CNC(=O)c1ccc(Nc2ncc(C(F)(F)F)c(NCc3nccnc3N(C)S(C)(=O)=O)n2)cc1 [defactinib]
Procedure, shortened: as §1

[7] = compound: CNc1nc(-c2ccc3c(N)n[nH]c3c2)cc(N2C[C@@H](C(=O)NC3CCCCC3)CC[C@H]2C)n1
Procedure, shortened: as §1

encorafenib = compound: COC(=O)N[C@@H](C)CNc1nccc(-c2cn(C(C)C)nc2-c2cc(Cl)cc(NS(C)(=O)=O)c2F)n1 [encorafenib]
Procedure, shortened: as §1

[8] = compound: COC(=O)[C@H](CCSC)NC(=O)C1=C(C=C(C=C1)NC[C@H](CS)N)C2=CC=CC=C2
Procedure, shortened: as §1

alisertib = compound: COc1cc(Nc2ncc3c(n2)-c2ccc(Cl)cc2C(c2c(F)cccc2OC)=NC3)ccc1C(=O)O [alisertib]
Procedure, shortened: as §1

[9] = compound: COc1cc2nc(-c3cc(F)ccc3O)nc(N[C@@H]3CNC[C@H]3C(C)(C)O)c2cc1OC
Procedure, shortened: as §1

gefitinib = compound: COc1cc2ncnc(Nc3ccc(F)c(Cl)c3)c2cc1OCCCN1CCOCC1 [gefitinib]
Procedure, shortened: as §1

Row | Target | log2 fold change (vemurafenib) | log2 fold change [1] | log2 fold change (barasertib) | log2 fold change [2] | log2 fold change (volasertib) | log2 fold change [3] | log2 fold change [4] | log2 fold change [5] | log2 fold change (saracatinib) | log2 fold change (sotrastaurin) | log2 fold change (alvocidib) | log2 fold change (Tubastatin A) | log2 fold change [6] | log2 fold change (defactinib) | log2 fold change [7] | log2 fold change (encorafenib) | log2 fold change [8] | log2 fold change (alisertib) | log2 fold change [9] | log2 fold change (gefitinib)
1 | RRM2B isoform 6 (UniProt Q7LG56) | inactive: 0.028 | inactive: 0.017 | inactive: -0.017 | inactive: 0.057 | inactive: 0.024 | inactive: -0.022 | inactive: 0.005 | inactive: 0.055 | inactive: -0.016 | inactive: 0.026 | inactive: 0.001 | inactive: 0.055 | inactive: 0.036 | inactive: -0.002 | inactive: 0.038 | inactive: 0.008 | inactive: -0.047 | inactive: 0.021 | inactive: 0.001 | inactive: -0.008
2 | RSU1 (UniProt Q15404) | inactive: -0.006 | inactive: 0.005 | inactive: -0.067 | inactive: 0.026 | inactive: 0.022 | inactive: 0.004 | active: 0.405 | inactive: -0.143 | inactive: -0.032 | inactive: -0.019 | inactive: 0.12 | inactive: 0.057 | inactive: -0.021 | inactive: -0.042 | inactive: -0.008 | inactive: -0.035 | inactive: -0.035 | inactive: -0.005 | inactive: 0.015 | inactive: 0.023
3 | RPS3A (UniProt P61247) | inactive: -0.033 | inactive: 0 | inactive: -0.017 | inactive: -0.035 | inactive: -0.004 | inactive: 0.033 | inactive: 0.042 | inactive: -0.061 | inactive: 0.022 | inactive: 0.008 | inactive: 0.013 | inactive: 0.023 | inactive: 0.008 | inactive: -0.03 | inactive: -0.048 | inactive: -0.024 | inactive: -0.007 | inactive: 0.018 | inactive: -0.007 | inactive: -0.023
4 | RRP7A (UniProt Q9Y3A4) | inactive: 0.031 | inactive: 0.059 | inactive: 0.027 | inactive: 0.08 | inactive: 0.067 | inactive: -0.115 | inactive: -0.012 | inactive: -0.009 | inactive: -0.05 | inactive: 0.062 | inactive: -0.009 | inactive: -0.021 | inactive: 0.053 | inactive: -0.025 | inactive: -0.139 | inactive: -0.006 | inactive: -0.07 | – | inactive: 0.02 | –
5 | S100A2 (UniProt P29034) | inactive: 0.199 | inactive: 0.035 | inactive: 0.252 | inactive: 0.062 | inactive: -0.051 | inactive: -0.248 | inactive: -0.497 | inactive: 0.482 | – | inactive: -0.083 | inactive: -0.197 | inactive: -0.005 | inactive: -0.087 | inactive: -0.064 | – | inactive: 0.049 | inactive: 0.047 | inactive: 0.024 | inactive: 0.147 | inactive: 0.091
6 | RSF1 (UniProt Q96T23) | inactive: 0.105 | inactive: 0.05 | inactive: 0.004 | inactive: 0.007 | inactive: 0.016 | inactive: 0.003 | inactive: 0.074 | inactive: -0.04 | inactive: -0.024 | inactive: -0.011 | inactive: 0.047 | inactive: -0.062 | inactive: -0.209 | inactive: 0.095 | inactive: -0.072 | inactive: 0.029 | inactive: -0.074 | – | inactive: -0.024 | –
7 | RSAD1 (UniProt Q9HA92) | inactive: 0.038 | inactive: 0.057 | inactive: 0.177 | inactive: 0.388 | inactive: -0.013 | inactive: -0.092 | inactive: -0.314 | inactive: -0.041 | inactive: -0.005 | inactive: 0.162 | inactive: -0.146 | inactive: 0.027 | inactive: 0.001 | inactive: 0.043 | inactive: 0.701 | inactive: -0.19 | inactive: 0.146 | – | inactive: 0.178 | –
8 | RPS20 isoform 2 (UniProt P60866) | inactive: -0.005 | inactive: -0.035 | inactive: 0.07 | inactive: -0.011 | inactive: -0.001 | inactive: 0.016 | inactive: -0.103 | inactive: 0.05 | inactive: 0.019 | inactive: -0.03 | inactive: -0.021 | inactive: 0.013 | inactive: -0.013 | inactive: -0.058 | inactive: 0.017 | inactive: -0.015 | inactive: -0.04 | inactive: 0.005 | inactive: 0.004 | inactive: -0.023
9 | S100A11 (UniProt P31949) | inactive: 0.005 | inactive: -0.015 | inactive: 0.008 | inactive: 0.037 | inactive: 0.098 | inactive: 0.004 | inactive: -0.008 | inactive: -0.052 | inactive: 0.023 | inactive: -0.036 | inactive: 0.085 | inactive: 0.075 | inactive: 0.029 | inactive: 0.059 | inactive: -0.011 | inactive: -0.021 | inactive: 0.007 | inactive: 0.024 | inactive: -0.01 | inactive: -0.089
10 | RPP14 (UniProt O95059) | inactive: -0.166 | inactive: -0.066 | inactive: -0.038 | inactive: -0.009 | inactive: 0.005 | inactive: -0.007 | inactive: 0.1 | inactive: 0.014 | – | inactive: 0.065 | inactive: -0.028 | inactive: 0.003 | inactive: 0.016 | inactive: 0.088 | – | inactive: -0.054 | inactive: -0.043 | inactive: -0.014 | inactive: -0.034 | inactive: -0.097
11 | RPS6KA3 (UniProt P51812) | inactive: 0.031 | inactive: 0.005 | inactive: -0.003 | – | inactive: -0.026 | inactive: 0.133 | inactive: -0.014 | inactive: 0.093 | inactive: 0.078 | inactive: 0.037 | inactive: 0.306 | inactive: -0.151 | – | active: 0.433 | inactive: -0.017 | inactive: -0.107 | inactive: 0.056 | – | inactive: 0.049 | inactive: -0.025
12 | RPN1 (UniProt P04843) | inactive: 0.005 | inactive: -0.01 | inactive: 0.024 | inactive: 0.032 | inactive: -0.011 | inactive: 0.014 | inactive: -0.07 | inactive: 0.015 | inactive: -0.023 | inactive: -0.008 | inactive: -0.025 | inactive: 0.031 | inactive: -0.027 | inactive: 0.014 | inactive: 0.026 | inactive: 0.014 | inactive: -0.093 | inactive: 0.03 | inactive: -0.046 | inactive: -0.009

Pulled one by one from the entries so far:
Row | Target | log2 fold change (vemurafenib) | log2 fold change [1] | log2 fold change (barasertib) | log2 fold change [2] | log2 fold change (volasertib) | log2 fold change [3] | log2 fold change [4] | log2 fold change [5] | log2 fold change (saracatinib) | log2 fold change (sotrastaurin) | log2 fold change (alvocidib) | log2 fold change (Tubastatin A) | log2 fold change [6] | log2 fold change (defactinib) | log2 fold change [7] | log2 fold change (encorafenib) | log2 fold change [8] | log2 fold change (alisertib) | log2 fold change [9] | log2 fold change (gefitinib)
3 | RPS3A (UniProt P61247) | inactive: -0.033 | inactive: 0 | inactive: -0.017 | inactive: -0.035 | inactive: -0.004 | inactive: 0.033 | inactive: 0.042 | inactive: -0.061 | inactive: 0.022 | inactive: 0.008 | inactive: 0.013 | inactive: 0.023 | inactive: 0.008 | inactive: -0.03 | inactive: -0.048 | inactive: -0.024 | inactive: -0.007 | inactive: 0.018 | inactive: -0.007 | inactive: -0.023
9 | S100A11 (UniProt P31949) | inactive: 0.005 | inactive: -0.015 | inactive: 0.008 | inactive: 0.037 | inactive: 0.098 | inactive: 0.004 | inactive: -0.008 | inactive: -0.052 | inactive: 0.023 | inactive: -0.036 | inactive: 0.085 | inactive: 0.075 | inactive: 0.029 | inactive: 0.059 | inactive: -0.011 | inactive: -0.021 | inactive: 0.007 | inactive: 0.024 | inactive: -0.01 | inactive: -0.089
